We go through 36 targets from the supplement of paper PMC5836539.

Chains of the proteins cited; added tags and fusions are not shown. Lines headed by an entry give the natural chain unless they say otherwise; changes in a name come on top.
UniProt P13861, whole entry: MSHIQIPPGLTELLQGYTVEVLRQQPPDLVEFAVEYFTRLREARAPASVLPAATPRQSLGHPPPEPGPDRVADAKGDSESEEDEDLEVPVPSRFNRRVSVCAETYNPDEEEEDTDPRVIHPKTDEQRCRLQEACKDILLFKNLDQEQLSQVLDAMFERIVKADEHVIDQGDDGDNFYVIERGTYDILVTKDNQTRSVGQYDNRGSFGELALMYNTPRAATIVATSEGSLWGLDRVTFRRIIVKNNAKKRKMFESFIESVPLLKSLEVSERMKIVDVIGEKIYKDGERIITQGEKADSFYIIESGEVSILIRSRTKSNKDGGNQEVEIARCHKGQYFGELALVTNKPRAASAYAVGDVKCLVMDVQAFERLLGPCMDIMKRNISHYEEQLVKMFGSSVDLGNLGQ
UniProt P16949: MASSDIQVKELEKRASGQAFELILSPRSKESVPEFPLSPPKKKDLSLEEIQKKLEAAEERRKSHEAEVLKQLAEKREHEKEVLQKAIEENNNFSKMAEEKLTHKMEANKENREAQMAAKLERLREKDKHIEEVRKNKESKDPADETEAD
UniProt Q01105, whole entry, looked up: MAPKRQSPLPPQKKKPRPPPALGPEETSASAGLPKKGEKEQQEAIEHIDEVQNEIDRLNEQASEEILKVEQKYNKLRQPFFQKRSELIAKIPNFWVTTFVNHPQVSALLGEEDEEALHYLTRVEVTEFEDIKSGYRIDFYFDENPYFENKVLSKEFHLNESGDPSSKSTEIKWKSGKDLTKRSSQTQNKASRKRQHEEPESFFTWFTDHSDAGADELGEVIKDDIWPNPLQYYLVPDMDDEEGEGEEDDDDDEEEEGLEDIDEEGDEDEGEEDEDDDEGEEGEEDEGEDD
UniProt Q2TAM9: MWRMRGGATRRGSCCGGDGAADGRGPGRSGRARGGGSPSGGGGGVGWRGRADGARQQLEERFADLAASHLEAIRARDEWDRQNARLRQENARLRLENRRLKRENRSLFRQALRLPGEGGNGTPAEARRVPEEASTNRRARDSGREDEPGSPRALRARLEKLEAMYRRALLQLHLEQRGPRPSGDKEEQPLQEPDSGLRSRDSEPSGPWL
UniProt Q8NE71: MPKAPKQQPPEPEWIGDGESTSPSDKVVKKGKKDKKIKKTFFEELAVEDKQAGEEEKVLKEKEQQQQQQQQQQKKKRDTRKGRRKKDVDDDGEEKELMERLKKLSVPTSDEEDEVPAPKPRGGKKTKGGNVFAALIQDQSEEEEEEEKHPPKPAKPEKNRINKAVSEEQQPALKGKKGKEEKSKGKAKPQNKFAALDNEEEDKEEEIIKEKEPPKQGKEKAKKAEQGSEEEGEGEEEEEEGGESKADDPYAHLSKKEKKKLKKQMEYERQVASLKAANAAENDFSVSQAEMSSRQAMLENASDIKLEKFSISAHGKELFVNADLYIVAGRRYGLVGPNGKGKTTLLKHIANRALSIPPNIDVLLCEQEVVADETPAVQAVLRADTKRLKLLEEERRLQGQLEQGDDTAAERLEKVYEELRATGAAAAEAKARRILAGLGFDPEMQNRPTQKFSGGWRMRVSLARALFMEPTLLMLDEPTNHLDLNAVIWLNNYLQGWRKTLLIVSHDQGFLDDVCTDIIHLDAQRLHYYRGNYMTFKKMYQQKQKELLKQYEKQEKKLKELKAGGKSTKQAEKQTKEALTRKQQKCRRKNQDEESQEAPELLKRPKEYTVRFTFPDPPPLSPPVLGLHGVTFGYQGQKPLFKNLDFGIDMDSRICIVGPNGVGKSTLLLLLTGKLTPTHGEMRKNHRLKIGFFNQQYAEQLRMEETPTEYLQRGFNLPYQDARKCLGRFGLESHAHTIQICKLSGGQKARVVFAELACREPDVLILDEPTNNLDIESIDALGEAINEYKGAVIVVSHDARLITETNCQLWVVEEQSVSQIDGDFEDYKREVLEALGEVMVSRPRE
UniProt Q9UQ35: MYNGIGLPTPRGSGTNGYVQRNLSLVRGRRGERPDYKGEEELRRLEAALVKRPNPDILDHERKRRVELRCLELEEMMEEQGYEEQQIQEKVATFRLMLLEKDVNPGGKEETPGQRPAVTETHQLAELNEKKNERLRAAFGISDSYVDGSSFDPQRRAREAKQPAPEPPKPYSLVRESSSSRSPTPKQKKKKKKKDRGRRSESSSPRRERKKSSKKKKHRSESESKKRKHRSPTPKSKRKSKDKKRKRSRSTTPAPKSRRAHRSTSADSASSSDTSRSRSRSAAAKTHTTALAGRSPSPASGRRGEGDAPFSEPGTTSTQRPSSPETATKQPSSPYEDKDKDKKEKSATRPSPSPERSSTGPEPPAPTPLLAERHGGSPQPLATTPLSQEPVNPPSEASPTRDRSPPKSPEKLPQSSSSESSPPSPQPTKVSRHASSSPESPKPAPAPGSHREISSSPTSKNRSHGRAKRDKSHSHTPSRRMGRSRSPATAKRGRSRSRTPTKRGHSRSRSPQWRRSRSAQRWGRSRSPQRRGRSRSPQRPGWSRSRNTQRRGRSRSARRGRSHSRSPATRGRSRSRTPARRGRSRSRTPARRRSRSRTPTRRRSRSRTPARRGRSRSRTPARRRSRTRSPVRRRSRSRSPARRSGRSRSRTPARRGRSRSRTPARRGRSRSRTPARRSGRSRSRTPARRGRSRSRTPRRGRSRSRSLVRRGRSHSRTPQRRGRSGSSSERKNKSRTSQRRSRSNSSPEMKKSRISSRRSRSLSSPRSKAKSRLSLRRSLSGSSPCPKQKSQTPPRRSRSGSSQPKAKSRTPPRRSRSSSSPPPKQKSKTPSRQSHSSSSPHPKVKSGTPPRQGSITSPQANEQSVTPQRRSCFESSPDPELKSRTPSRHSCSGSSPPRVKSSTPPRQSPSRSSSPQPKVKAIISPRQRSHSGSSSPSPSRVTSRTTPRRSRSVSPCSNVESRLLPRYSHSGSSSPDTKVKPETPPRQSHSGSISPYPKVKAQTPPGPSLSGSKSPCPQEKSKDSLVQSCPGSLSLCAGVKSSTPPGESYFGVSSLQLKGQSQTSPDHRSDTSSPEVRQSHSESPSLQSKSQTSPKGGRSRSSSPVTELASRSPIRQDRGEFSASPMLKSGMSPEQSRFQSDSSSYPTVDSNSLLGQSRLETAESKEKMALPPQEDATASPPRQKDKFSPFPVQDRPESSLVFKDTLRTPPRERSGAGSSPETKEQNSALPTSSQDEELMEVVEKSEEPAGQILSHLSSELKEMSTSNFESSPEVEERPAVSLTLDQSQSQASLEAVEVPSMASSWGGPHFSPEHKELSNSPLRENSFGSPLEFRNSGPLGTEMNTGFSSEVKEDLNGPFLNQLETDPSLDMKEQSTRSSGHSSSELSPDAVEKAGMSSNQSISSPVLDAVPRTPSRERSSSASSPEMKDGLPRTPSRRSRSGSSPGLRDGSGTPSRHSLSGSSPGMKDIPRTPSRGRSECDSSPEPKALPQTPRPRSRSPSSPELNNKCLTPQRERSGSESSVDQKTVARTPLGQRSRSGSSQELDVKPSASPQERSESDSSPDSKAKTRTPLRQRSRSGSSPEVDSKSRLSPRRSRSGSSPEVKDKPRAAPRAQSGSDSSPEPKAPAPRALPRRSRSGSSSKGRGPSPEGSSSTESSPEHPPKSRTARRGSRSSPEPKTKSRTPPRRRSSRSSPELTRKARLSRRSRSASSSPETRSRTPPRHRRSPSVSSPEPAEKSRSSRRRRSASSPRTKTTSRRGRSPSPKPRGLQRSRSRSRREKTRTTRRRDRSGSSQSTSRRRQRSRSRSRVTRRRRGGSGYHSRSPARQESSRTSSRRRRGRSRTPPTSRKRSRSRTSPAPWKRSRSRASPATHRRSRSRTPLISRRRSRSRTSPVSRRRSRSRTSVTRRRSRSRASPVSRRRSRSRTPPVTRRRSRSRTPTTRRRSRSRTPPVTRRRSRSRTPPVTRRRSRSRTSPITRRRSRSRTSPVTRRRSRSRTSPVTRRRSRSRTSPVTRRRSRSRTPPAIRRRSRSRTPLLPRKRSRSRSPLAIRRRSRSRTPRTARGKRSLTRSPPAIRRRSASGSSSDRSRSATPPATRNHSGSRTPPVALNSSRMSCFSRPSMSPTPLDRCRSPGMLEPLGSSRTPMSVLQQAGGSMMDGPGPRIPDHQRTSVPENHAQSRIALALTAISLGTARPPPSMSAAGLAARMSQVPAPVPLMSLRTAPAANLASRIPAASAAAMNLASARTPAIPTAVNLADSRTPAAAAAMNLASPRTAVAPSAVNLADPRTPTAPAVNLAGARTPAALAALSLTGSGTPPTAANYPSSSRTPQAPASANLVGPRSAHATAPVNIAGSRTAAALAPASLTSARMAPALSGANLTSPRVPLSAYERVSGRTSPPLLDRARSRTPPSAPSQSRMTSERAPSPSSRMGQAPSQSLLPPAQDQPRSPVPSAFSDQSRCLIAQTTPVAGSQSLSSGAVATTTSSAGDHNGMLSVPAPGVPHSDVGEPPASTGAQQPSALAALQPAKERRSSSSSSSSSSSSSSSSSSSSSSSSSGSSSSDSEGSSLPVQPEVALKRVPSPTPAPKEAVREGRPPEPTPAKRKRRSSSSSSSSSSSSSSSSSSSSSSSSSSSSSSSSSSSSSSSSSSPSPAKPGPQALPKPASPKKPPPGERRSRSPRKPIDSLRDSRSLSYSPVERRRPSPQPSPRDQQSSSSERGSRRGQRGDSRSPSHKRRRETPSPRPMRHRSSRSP
UniProt Q92769, whole entry, looked up: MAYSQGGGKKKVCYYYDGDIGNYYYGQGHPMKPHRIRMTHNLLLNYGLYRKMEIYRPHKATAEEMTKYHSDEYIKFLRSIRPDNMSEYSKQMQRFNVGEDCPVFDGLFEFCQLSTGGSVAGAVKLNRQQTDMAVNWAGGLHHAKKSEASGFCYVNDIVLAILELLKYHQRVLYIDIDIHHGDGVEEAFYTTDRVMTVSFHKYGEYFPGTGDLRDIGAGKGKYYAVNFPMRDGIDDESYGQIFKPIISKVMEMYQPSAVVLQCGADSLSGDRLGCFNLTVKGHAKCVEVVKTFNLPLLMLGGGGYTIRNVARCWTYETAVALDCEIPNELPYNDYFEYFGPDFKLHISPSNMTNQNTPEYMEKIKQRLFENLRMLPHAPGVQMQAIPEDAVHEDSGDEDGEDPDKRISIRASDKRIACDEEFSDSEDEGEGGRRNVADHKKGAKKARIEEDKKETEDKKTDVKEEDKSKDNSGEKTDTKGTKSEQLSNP
UniProt Q9Y4H2: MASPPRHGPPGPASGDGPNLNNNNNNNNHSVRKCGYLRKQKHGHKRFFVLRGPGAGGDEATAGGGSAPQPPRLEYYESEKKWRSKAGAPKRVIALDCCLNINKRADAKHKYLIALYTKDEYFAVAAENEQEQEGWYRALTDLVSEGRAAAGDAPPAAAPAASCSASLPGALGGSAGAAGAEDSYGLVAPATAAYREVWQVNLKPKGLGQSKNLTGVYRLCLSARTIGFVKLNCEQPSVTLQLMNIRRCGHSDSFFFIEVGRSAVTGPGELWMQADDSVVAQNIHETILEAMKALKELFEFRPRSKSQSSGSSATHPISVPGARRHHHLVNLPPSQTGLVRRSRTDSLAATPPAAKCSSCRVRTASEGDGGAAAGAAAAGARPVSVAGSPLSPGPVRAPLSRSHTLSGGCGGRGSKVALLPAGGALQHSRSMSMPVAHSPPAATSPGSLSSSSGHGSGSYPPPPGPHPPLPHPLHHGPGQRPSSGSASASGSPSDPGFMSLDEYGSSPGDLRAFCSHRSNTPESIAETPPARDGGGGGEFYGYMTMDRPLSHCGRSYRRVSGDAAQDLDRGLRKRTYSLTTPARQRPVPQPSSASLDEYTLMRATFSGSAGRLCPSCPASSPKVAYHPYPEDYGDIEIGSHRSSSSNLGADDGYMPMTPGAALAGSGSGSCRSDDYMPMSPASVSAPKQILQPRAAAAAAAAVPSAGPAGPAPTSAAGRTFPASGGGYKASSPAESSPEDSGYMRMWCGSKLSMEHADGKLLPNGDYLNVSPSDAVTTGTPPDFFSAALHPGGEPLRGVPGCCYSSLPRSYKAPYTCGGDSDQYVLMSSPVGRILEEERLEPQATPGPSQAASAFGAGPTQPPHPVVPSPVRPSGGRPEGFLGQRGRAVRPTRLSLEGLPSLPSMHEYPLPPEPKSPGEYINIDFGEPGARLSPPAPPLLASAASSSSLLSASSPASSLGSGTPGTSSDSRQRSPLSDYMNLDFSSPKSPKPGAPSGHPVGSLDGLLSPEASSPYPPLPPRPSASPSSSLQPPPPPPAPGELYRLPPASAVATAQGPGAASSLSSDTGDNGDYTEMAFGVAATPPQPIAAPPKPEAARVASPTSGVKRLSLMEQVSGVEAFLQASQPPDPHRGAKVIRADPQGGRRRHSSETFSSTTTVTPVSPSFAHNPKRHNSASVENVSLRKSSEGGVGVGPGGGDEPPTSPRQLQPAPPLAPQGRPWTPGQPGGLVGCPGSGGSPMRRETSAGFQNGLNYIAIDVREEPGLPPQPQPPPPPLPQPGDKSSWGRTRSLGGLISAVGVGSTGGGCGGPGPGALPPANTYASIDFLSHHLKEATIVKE

Compound in test [1]: T1, CC[C@@H](C)Nc1cc(C(=O)N[C@H]2C[C@H]3CC[C@@H](C2)N3c2ccc(C(=O)C3CC3)cn2)c(C)cc1C(N)=O [XL888]
Kind of test: phosphopeptide melting temperature shift (XL888 minus DMSO); higher = stabilised by drug treatment. To be noted: 100 µM; treatment time 2 h; layout: intact cells; SK-Mel 24. The method, then: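 Phospho-TPP in intact SK-Mel 24 cells treated with 100 uM XL888 or DMSO for 2 h, heated at 10 temperatures (37-67 C) for 3 min, soluble fraction TMT10plex-labelled and TiO2 phospho-enriched. Melting curves were fitted per phosphopeptide; the value is the melting point difference (drug minus vehicle) in each of two biological replicates.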

Compound in test [2]: T1, XL888
The description is as above. To be noted: 100 µM; treatment time 2 h; layout: intact cells; SK-Mel 28. The protocol: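 Phospho-TPP in intact SK-Mel 28 cells treated with 100 uM XL888 or DMSO for 2 h, heated at 10 temperatures (37-67 C) for 3 min, soluble fraction TMT10plex-labelled and TiO2 phospho-enriched. Melting curves were fitted per phosphopeptide; the value is the melting point difference (drug minus vehicle) in each of two biological replicates.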

± gives the standard deviation of the averaged measurements. Most values lie within the scatter of the assay; repeated measurements hardly agree.

Regarding “WDR55 phosphosite_14 (phosphosite position: 14) (UniProt Q9H6Y2)”, the figures for the “phosphopeptide melting temperature shift” value in test [1] and in test [2] were -1.7 °C and 1.79 °C, respectively.
For “UniProt Q15831-2_phosphosite_31 (phosphosite position: 31)”, in that order: -1.23 °C and -0.588 °C.
For “POLR3G phosphosite_157 (phosphosite position: 157) (UniProt O15318)”, in that order: 2.51 °C and 0.262 ± 0.8 °C.
For “TXLNA phosphosite_515 (phosphosite position: 515) (UniProt P40222)”, in that order: -0.112 °C and 0.945 ± 1.2 °C.
Consider “UniProt Q9UKE5-6_phosphosite_740 (phosphosite position: 740)”, for which the “phosphopeptide melting temperature shift” value in test [1] amounted to 0.485 ± 0.34 °C; in test [2], 0.955 ± 1.4 °C.
On the same counts, the results for “UniProt Q14676-3_phosphosite_168 (phosphosite position: 168)” are -0.442 °C and 0.44 ± 0.14 °C.
As to “SAAL1 phosphosite_56 (phosphosite position: 56) (UniProt Q96ER3)”, the results for the “phosphopeptide melting temperature shift” value in test [1] and in test [2] were 3.57 °C and 2.32 °C, respectively.
With “PRKAR2A phosphosite_99 (phosphosite position: 99) (UniProt P13861)”, the “phosphopeptide melting temperature shift” value in test [1] was determined as 0.255 ± 0.079 °C; in test [2], 1.04 ± 1.4 °C.
“ARFGEF2 phosphosite_277 (phosphosite position: 277) (UniProt Q9Y6D5)”: the “phosphopeptide melting temperature shift” value in test [1] was found to be 0.75 °C; in test [2] it was 5.53 °C.
On the same counts, the results for “HSP90AB1 phosphosite_255 (phosphosite position: 255) (UniProt P08238)” are 4.62 ± 0.43 °C and 5.02 ± 0.1 °C.
For “ANKS1A phosphosite_661 (phosphosite position: 661) (UniProt Q92625)”, in that order: 0.901 ± 0.41 °C and -0.379 ± 0.73 °C.
On the same counts, the results for “SF3A1 phosphosite_329 (phosphosite position: 329) (UniProt Q15459)” are 1.26 °C and 1.52 ± 0.32 °C.
For “UniProt Q6ICG6-3_phosphosite_245 (phosphosite position: 245)”, the “phosphopeptide melting temperature shift” value was 4.79 °C in test [1] and 1.29 ± 0.22 °C in test [2].
On the same counts, the results for “STMN1 phosphosite_16 (phosphosite position: 16) (UniProt P16949)” are 0.869 °C and 1.02 °C.
On the same counts, the results for “PDLIM4 phosphosite_112 (phosphosite position: 112) (UniProt P50479)” are 1.36 °C and 1.6 °C.
As to “UniProt P21127-9_phosphosite_542 (phosphosite position: 542)”, the “phosphopeptide melting temperature shift” value stood at 1.21 ± 0.7 °C in test [1] and 2.812 ± 0.018 °C in test [2].
As for “ANAPC1 phosphosite_688 (phosphosite position: 688) (UniProt Q9H1A4)”, the figures for the “phosphopeptide melting temperature shift” value in test [1] and in test [2] were -0.726 ± 0.13 °C and 0.898 ± 0.4 °C, respectively.
On the same counts, the results for “UniProt Q01105-2_phosphosite_24 (phosphosite position: 24)” are -0.517 °C and -0.175 ± 0.29 °C.
For the target “SLC4A1AP phosphosite_466 (phosphosite position: 466) (UniProt Q9BWU0)”, the “phosphopeptide melting temperature shift” value is 1.33 °C in test [1] and 1.62 °C in test [2].
With “TMPO phosphosite_66 (phosphosite position: 66) (UniProt P42166)”, the “phosphopeptide melting temperature shift” value in test [1] came to 2 °C; in test [2] it was 1.23 ± 2.7 °C.
For “TUSC1 phosphosite_153 (phosphosite position: 153) (UniProt Q2TAM9)”, in that order: 0.777 °C and 2.22 °C.
For the target “ABCF1 phosphosite_140 (phosphosite position: 140) (UniProt Q8NE71)”, the “phosphopeptide melting temperature shift” value in test [1] is -0.986 °C; in test [2], -0.829 ± 0.91 °C.
On the same counts, the results for “UniProt Q92538-3_phosphosite_1298 (phosphosite position: 1298)” are 7.03 °C and 2.55 ± 0.13 °C.
On the same counts, the results for “UniProt Q99613-2_phosphosite_156 (phosphosite position: 156)” are 0.727 °C and 2.81 °C.
For “UniProt Q9NYF8-3_phosphosite_175 (phosphosite position: 175)”, the “phosphopeptide melting temperature shift” value was 0.677 °C in test [1] and 1.98 ± 0.64 °C in test [2].
For “UniProt Q03001-8_phosphosite_1556 (phosphosite position: 1556)”, in that order: -1.22 °C and 0.336 °C.
On the same counts, the results for “SRRM2 phosphosite_2702 (phosphosite position: 2702) (UniProt Q9UQ35)” are 3.49 °C and 2.46 °C.
On the same counts, the results for “UniProt Q92769-3_phosphosite_364 (phosphosite position: 364)” are 0.188 °C and 0.845 ± 0.17 °C.
With “UniProt Q66K74-2_phosphosite_631 (phosphosite position: 631)”, the “phosphopeptide melting temperature shift” value in test [1] is -0.601 °C; in test [2], 0.218 ± 1.1 °C.
On the same counts, the results for “UniProt P35580-2_phosphosite_1972 (phosphosite position: 1972)” are -0.28 ± 0.022 °C and 1 ± 0.52 °C.
For “UniProt Q9Y6D9-3_phosphosite_336 (phosphosite position: 336)”, in that order: 1.32 °C and 0.145 ± 0.82 °C.
For “IGF2R phosphosite_2484 (phosphosite position: 2484) (UniProt P11717)”, in that order: -2.15 °C and -0.689 ± 1.4 °C.
As for “IRS2 phosphosite_915 (phosphosite position: 915) (UniProt Q9Y4H2)”, the “phosphopeptide melting temperature shift” value in test [1] was -1.37 °C; in test [2], 3.41 °C.
For “UniProt Q5T4S7-3_phosphosite_1760 (phosphosite position: 1760)”, in that order: -0.982 ± 0.085 °C and -0.104 ± 0.6 °C.
For “SLU7 phosphosite_235 (phosphosite position: 235) (UniProt O95391)”, in that order: 3.65 °C and 3.85 ± 0.34 °C.
For “UniProt Q9BTA9-5_phosphosite_64 (phosphosite position: 64)”, in that order: 0.905 °C and 0.534 ± 0.49 °C.
